# From article PMC11764357
# These are yes or no findings as the source states them, for the method shown. In cells and extracts the contact can be indirect. Some results given as binding are weak or reduced against the parent protein; the word gives no strength.
# T1: ARHGEF7 (mouse (endogenous in primary cultured neurons)) (UniProt Q9ES28)
# T1 sequence: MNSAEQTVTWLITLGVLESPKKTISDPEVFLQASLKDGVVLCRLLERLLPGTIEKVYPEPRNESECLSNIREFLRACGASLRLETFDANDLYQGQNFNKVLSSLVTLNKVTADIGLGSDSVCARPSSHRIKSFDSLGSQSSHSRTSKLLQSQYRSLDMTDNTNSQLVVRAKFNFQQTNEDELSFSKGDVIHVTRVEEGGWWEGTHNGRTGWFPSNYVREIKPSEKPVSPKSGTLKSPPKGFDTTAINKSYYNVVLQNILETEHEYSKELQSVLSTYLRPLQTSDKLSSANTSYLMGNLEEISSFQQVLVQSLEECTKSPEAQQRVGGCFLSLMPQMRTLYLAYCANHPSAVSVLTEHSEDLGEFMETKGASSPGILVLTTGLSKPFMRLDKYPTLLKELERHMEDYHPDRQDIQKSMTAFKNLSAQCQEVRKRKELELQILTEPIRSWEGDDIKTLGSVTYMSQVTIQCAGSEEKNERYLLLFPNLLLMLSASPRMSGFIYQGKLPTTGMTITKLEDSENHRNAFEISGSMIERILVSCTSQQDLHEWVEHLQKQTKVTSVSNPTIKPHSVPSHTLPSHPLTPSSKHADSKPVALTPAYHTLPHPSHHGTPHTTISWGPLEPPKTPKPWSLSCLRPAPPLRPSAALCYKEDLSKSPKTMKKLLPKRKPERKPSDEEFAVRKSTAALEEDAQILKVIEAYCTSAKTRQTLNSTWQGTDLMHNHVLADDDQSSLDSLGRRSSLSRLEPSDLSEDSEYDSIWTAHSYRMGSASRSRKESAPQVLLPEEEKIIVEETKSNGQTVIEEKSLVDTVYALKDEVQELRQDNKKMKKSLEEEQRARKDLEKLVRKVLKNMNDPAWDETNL
# B1: STIL (protein, UniProt Q60988 1-1262)
# chain: MNTRFPSSKMVPFHFPPSKLALWNPMPIGECIYLHLSYYRKPKLMVTEKAIRLAYRHAKQNKKNVPCFLLGSLTVDEDEEGVTLTIDRFDPGREIPECLERTPTASLPGDFLIPCRVHIQGLGSRDVIVHNADDFSSALKALQYHVCSKDFLDCGKLLCLRAQITPRESLDGVDFNLQWTAVTLANSFKCVPVKPIPIIPTALARNLSSNLNISQVQGTYKHGYITMDETRKLLLLLQSDPKVSSLPLVGIWLAGIIHVYSPQVWACCLRYMFSSSIQERVFSESGNFIIVLYSLTHKEPEFYECLPCESRTPDLQFQLLTNKETLHLFNNVEPSGKNPIHFELSAESQDAEAEAEVLSKISKTLPVKRSSQKLSPGKIPINKHDTDLEDEDFSPRPIPSPHPVSQKISKVQPSVPELSLVLDNNFTESSNQSNPLEMMTVENPLLIKPSQPELCDAKHSSEATTGEPFRRGPTNQLSQDTALRQSRGKQSSTCKKESLQFRNTNAKPSLSVPSPDVAEKLQAVSAGSMQKEDYPVRPSTLDSRQPSLAPQAQPHNLVFSTHNSTRPMELQVPTPSLPSYYPTNVCSCCQHHGHIQYSTINSWQGNTVGSIQDLRSESLPKHAFFHSSGCPSLCPNAIYSSSSPVSMKQGGMGAYSPHSNGEPSPVAGPSHVDSCVPHPCAMCMHTPNTAPDNGMMGLSPDAYRFVTEQDRQLRLLQAQIQRLLEAQSLDPGSHKTVATVEDTVKAAKQMELVSMEAQSSPGLHMRKSVSIAVSTGASLFWNAAGDDQEPDSQPKQDDTKISSEDMNFSVDINNEATSLPGSASSLKAVDIPSFEESNLAVEEVNQPLPESNSSSEQSKEPGVPVFFPNALLAESVSMCLQTAPTEGASNSTELPQGTKDEPYRPSDNQKIYQDLLGQVNHLLSNASQETEEPPTKAVVTNRECAKTQNTHHARKKRHNSGLVDKDCVLSATIKQLRSLGVKIDSPTKVKKNEQKVDHASVLACISPEAVISGLNYMSFGNVGMSSLSPTGVDLSMEANAIALKYLSENQLSQLSLARSKQNNGDSSVGLLHINSDRSTVGLSLVSPSNMSFATKKYMKRYGLLQSSDNSEDEEEPPSHADSESDHVLNRNPACRPVQCGHEKEPSWNACEIAQCSDCGSADTRTDVPVLRNITNQAVQPRATEHLNEDSAISLRNLKPNPAMNLRTGKAEFTHHPEKENERDIAVFPGTLPSPETLKQMNSMDSVGTFLDVKRLRQLPKLF
# Key:
# [1] = molecular target: T1, ARHGEF7 (mouse (endogenous in primary cultured neurons)); assay: co-IP; endogenous proteins; crude neuronal lysates as well as synaptosomal fractions; immunoblot for STIL
# [2] = molecular target: T1, ARHGEF7 (mouse (endogenous in primary cultured neurons)); assay: proximity ligation; Duolink in situ PLA kit on fixed cultured mouse hippocampal neurons with antibodies against STIL and ARHGEF7; phalloidin staining afterwards; with and without cLTP induction before fixation
binder,measurement,setting,value
B1,binding,[1],binds weakly
same,binding,[2],binds
